# Source: PubChem BioAssay AID743454 (Peter MacCallum Cancer Centre, 2014)
# Purpose: 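Genes whose loss kills vorinostat-resistant colon cancer cells under vorinostat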 (primary screen)
# Cells: human HCT116-VR colon cancer cells, selected for vorinostat resistance
# Reagents: siRNA pool against human genes, 40 nM siRNA pool
# Time to read-out: vorinostat for 24 h, read-out about 72 h after transfection
# Challenge: vorinostat at 2.5 µM final
# Measurement: 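Cell viability by CellTiter-Fluor and caspase 3/7 activity by luminescence, each scaled to mock wells per plate, duplicates averaged, then robust z-scored over all plates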
# Reading the numbers: viability robust z-score: higher = more viable cells than screen typical; caspase robust z-score: higher = more caspase 3/7 activity than screen typical
# Rule for the call: 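Hits are knock-downs in viability class RV1/RV2 or caspase class CA1/CA2, excluding ones that killed cells in the no-drug cell-count arm; hits then retested with single siRNAs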
# The deposit covers about 18,000 reagents; shown is a part drawn at random. In the full data, 450 (2.5%) are marked active. 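Single biological run; no consistent viability z cut-off exists, so the class columns, not z-scores, define the calls.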
gene,viability hit class,caspase hit class,viability robust z-score,caspase robust z-score,activity call
IFITM5 (GeneID 387733),no change,no change,0.8,-0.24,inactive
SCUBE2 (GeneID 57758),no change,no change,2.38,0.28,inactive
SPTBN2 (GeneID 6712),no change,no change,-0.6,3.75,inactive
COMMD10 (GeneID 51397),no change,no change,-1.03,2.34,inactive
HNRNPAB (GeneID 3182),no change,no change,0.3,-1.05,inactive
MYOM2 (GeneID 9172),no change,no change,0.86,0.08,inactive
ARL4D (GeneID 379),no change,no change,-0.54,2.54,inactive
SIRT7 (GeneID 51547),no change,no change,1.21,1.27,inactive
DOT1L (GeneID 84444),no change,no change,0.72,-0.06,inactive
MTERF1 (GeneID 7978),no change,no change,0.1,-0.04,inactive
SLC25A13 (GeneID 10165),no change,no change,0.49,-0.03,inactive
MRPL30 (GeneID 51263),no change,no change,-0.4,1.56,inactive
SEC14L2 (GeneID 23541),no change,no change,0.32,-0.46,inactive
NOTCH3 (GeneID 4854),no change,no change,-0.3,0.26,inactive
NECTIN1 (GeneID 5818),no change,no change,0.07,-0.62,inactive
SHCBP1 (GeneID 79801),no change,no change,0,0.44,inactive
MAN1B1 (GeneID 11253),no change,no change,0.47,1.36,inactive
C1orf162 (GeneID 128346),no change,no change,-1.25,-1.14,inactive
CLN6 (GeneID 54982),no change,no change,1.25,-0.94,inactive
CTC1 (GeneID 80169),no change,no change,1.02,-0.74,inactive
TLR10 (GeneID 81793),no change,no change,-0.93,0.02,inactive
HS6ST2 (GeneID 90161),no change,no change,0.64,0.97,inactive
TMEM204 (GeneID 79652),no change,no change,1.51,-0.5,inactive
